Data as given in PubChem BioAssay AID1508597 (Cure First, 2020)
The whole screen tested about 2,100 reagents; shown is a part drawn at random. 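Calls flag viability under 80% in either arm, not effects specific to rucaparib; the reference for percent is not stated.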 A number with no mark means an inactive call. Reagent sequences are not shown. Not given: the 100% reference.

Assay: 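Knock-downs altering ovarian cancer cell survival with or without PARP inhibitor rucaparib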 (primary screen)
Cells: human ovarian carcinoma lines grown from tumours: OCI-P5x (papillary serous) and OCI-C5x (clear cell)
Reagents: siRNA pool against human genes, 1.25 pmol siRNA per well
Timing: 72 h or 96 h, depending on the cell culture
Treatment: rucaparib 20 µM (about IC30) or vehicle, present until read-out
Detection: 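Luminescent ATP-based viability assay read 72 or 96 h after transfection, depending on culture, given as normalised percent viability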
Scale: viability, normalised: higher = more viable cells remaining
Active means: 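Active when normalised viability falls below 80 percent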
Meaning of the calls: active = viability under 80%; inactive = viability 80% or more

Gene,rucaparib or vehicle,cell line,technical replicate,"viability, normalised (%)"
PRKXP1 (GeneID 441733),Rucaparib,OCI-C5x (clear cell),1,47.1 (active)
PRKXP1 (GeneID 441733),Rucaparib,OCI-C5x (clear cell),2,64.1 (active)
PRKXP1 (GeneID 441733),Rucaparib,OCI-C5x (clear cell),3,61.8 (active)
PRKXP1 (GeneID 441733),Rucaparib,OCI-P5x (serous),1,106
PRKXP1 (GeneID 441733),Rucaparib,OCI-P5x (serous),2,110
PRKXP1 (GeneID 441733),Rucaparib,OCI-P5x (serous),3,114
PRKXP1 (GeneID 441733),Vehicle,OCI-C5x (clear cell),1,42.2 (active)
PRKXP1 (GeneID 441733),Vehicle,OCI-C5x (clear cell),2,44.1 (active)
PRKXP1 (GeneID 441733),Vehicle,OCI-C5x (clear cell),3,55.9 (active)
PRKXP1 (GeneID 441733),Vehicle,OCI-P5x (serous),1,105
PRKXP1 (GeneID 441733),Vehicle,OCI-P5x (serous),2,89.8
PRKXP1 (GeneID 441733),Vehicle,OCI-P5x (serous),3,80
SULF2 (GeneID 55959),Rucaparib,OCI-C5x (clear cell),1,50.1 (active)
SULF2 (GeneID 55959),Rucaparib,OCI-C5x (clear cell),2,55.4 (active)
SULF2 (GeneID 55959),Rucaparib,OCI-C5x (clear cell),3,56.3 (active)
SULF2 (GeneID 55959),Rucaparib,OCI-P5x (serous),1,76.1 (active)
SULF2 (GeneID 55959),Rucaparib,OCI-P5x (serous),2,73.5 (active)
SULF2 (GeneID 55959),Rucaparib,OCI-P5x (serous),3,97
SULF2 (GeneID 55959),Vehicle,OCI-C5x (clear cell),1,63.2 (active)
SULF2 (GeneID 55959),Vehicle,OCI-C5x (clear cell),2,60 (active)
SULF2 (GeneID 55959),Vehicle,OCI-C5x (clear cell),3,51.9 (active)
SULF2 (GeneID 55959),Vehicle,OCI-P5x (serous),1,69.6 (active)
SULF2 (GeneID 55959),Vehicle,OCI-P5x (serous),2,68.3 (active)
SULF2 (GeneID 55959),Vehicle,OCI-P5x (serous),3,71.5 (active)
GCK (GeneID 2645),Rucaparib,OCI-C5x (clear cell),1,47.1 (active)
GCK (GeneID 2645),Rucaparib,OCI-C5x (clear cell),2,56.4 (active)
GCK (GeneID 2645),Rucaparib,OCI-C5x (clear cell),3,45.6 (active)
GCK (GeneID 2645),Rucaparib,OCI-P5x (serous),1,105
GCK (GeneID 2645),Rucaparib,OCI-P5x (serous),2,99.3
GCK (GeneID 2645),Rucaparib,OCI-P5x (serous),3,102
GCK (GeneID 2645),Vehicle,OCI-C5x (clear cell),1,53.8 (active)
GCK (GeneID 2645),Vehicle,OCI-C5x (clear cell),2,52.3 (active)
GCK (GeneID 2645),Vehicle,OCI-C5x (clear cell),3,56.7 (active)
GCK (GeneID 2645),Vehicle,OCI-P5x (serous),1,71.6 (active)
GCK (GeneID 2645),Vehicle,OCI-P5x (serous),2,72.4 (active)
GCK (GeneID 2645),Vehicle,OCI-P5x (serous),3,84.7

Individual results from the list:
Value of GCK (GeneID 2645), rucaparib or vehicle Rucaparib, cell line OCI-C5x (clear cell), technical replicate 1 under “viability, normalised (%)”: 47.1 (active)
PRKXP1 (GeneID 441733), rucaparib or vehicle Rucaparib, cell line OCI-C5x (clear cell), technical replicate 3, viability, normalised (%) → 61.8 (active)
SULF2 (GeneID 55959), rucaparib or vehicle Rucaparib, cell line OCI-P5x (serous), technical replicate 3, viability, normalised (%): 97
Value for GCK (GeneID 2645), rucaparib or vehicle Rucaparib, cell line OCI-C5x (clear cell), technical replicate 2 in “viability, normalised (%)”: 56.4 (active)
PRKXP1 (GeneID 441733), rucaparib or vehicle Rucaparib, cell line OCI-P5x (serous), technical replicate 2, viability, normalised (%) = 110

Additional entries follow:
Gene,rucaparib or vehicle,cell line,technical replicate,"viability, normalised (%)"
NOTCH3 (GeneID 4854),Rucaparib,OCI-C5x (clear cell),1,63.3 (active)
NOTCH3 (GeneID 4854),Rucaparib,OCI-C5x (clear cell),2,67.1 (active)
NOTCH3 (GeneID 4854),Rucaparib,OCI-C5x (clear cell),3,56 (active)
NOTCH3 (GeneID 4854),Rucaparib,OCI-P5x (serous),1,76.6 (active)
NOTCH3 (GeneID 4854),Rucaparib,OCI-P5x (serous),2,79.9 (active)
NOTCH3 (GeneID 4854),Rucaparib,OCI-P5x (serous),3,74.8 (active)
NOTCH3 (GeneID 4854),Vehicle,OCI-C5x (clear cell),1,55.4 (active)
NOTCH3 (GeneID 4854),Vehicle,OCI-C5x (clear cell),2,62.5 (active)
NOTCH3 (GeneID 4854),Vehicle,OCI-C5x (clear cell),3,61.1 (active)
NOTCH3 (GeneID 4854),Vehicle,OCI-P5x (serous),1,67.8 (active)
NOTCH3 (GeneID 4854),Vehicle,OCI-P5x (serous),2,72.1 (active)
NOTCH3 (GeneID 4854),Vehicle,OCI-P5x (serous),3,82
KDM4D (GeneID 55693),Rucaparib,OCI-C5x (clear cell),1,37 (active)
KDM4D (GeneID 55693),Rucaparib,OCI-C5x (clear cell),2,28.1 (active)
KDM4D (GeneID 55693),Rucaparib,OCI-C5x (clear cell),3,26.5 (active)
KDM4D (GeneID 55693),Rucaparib,OCI-P5x (serous),1,47.5 (active)
KDM4D (GeneID 55693),Rucaparib,OCI-P5x (serous),2,44.7 (active)
KDM4D (GeneID 55693),Rucaparib,OCI-P5x (serous),3,45.9 (active)
KDM4D (GeneID 55693),Vehicle,OCI-C5x (clear cell),1,36.9 (active)
KDM4D (GeneID 55693),Vehicle,OCI-C5x (clear cell),2,32.5 (active)
KDM4D (GeneID 55693),Vehicle,OCI-C5x (clear cell),3,31.2 (active)
KDM4D (GeneID 55693),Vehicle,OCI-P5x (serous),1,55.6 (active)
KDM4D (GeneID 55693),Vehicle,OCI-P5x (serous),2,47.7 (active)
KDM4D (GeneID 55693),Vehicle,OCI-P5x (serous),3,50.5 (active)
